Data from PMC8217266 (Clinical Pharmacology and Therapeutics, 2021).

Tested on: transporters at major organ sites
Experiment: Prediction of transporter-mediated inhibition / DDI potential
Set-up: species or system human
Settings: of 11 transporters; FDA criteria

CCS(=O)(=O)N1CC(CC#N)(n2cc(-c3ncnc4[nH]ccc34)cn2)C1 [Baricitinib]
No. of transporters at major organ sites inhibited at clinical concentrations: 0
